# Screening data, single-dose tests

Source: ChEMBL document CHEMBL3988442, “University of Dundee, Small-Polar-MMV Screening Library” (2021).

T. brucei: 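Whole-parasite assay of Trypanosoma brucei over 72 hours; the read-out is not stated. Concentration: 30 µM. Higher reads as stronger inhibition (inferred: compounds with an IC50 in retests scored well above the rest). Values scatter widely below zero; nearly all retest evidence comes from the higher of the two concentrations used. About 64,000 compounds were tested under these conditions; 1.5% (about 940) showed 50% or more at least once.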
Toxoplasma: 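Assay of Toxoplasma gondii numbers, read through their beta-galactosidase reporter with a colour substrate. Compounds at 10 µM. Higher reads as fewer parasites (inferred from which compounds were picked for retests). Of about 67,000 compounds tested this way, about 260 (0.38%) reached 50% or more in at least one test.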
Leishmania in macrophages: 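Cell assay of Leishmania donovani living inside macrophages; the read-out is not stated. Compounds at 30 µM. Higher reads as stronger inhibition (inferred: compounds with an IC50 in retests scored well above the rest). Size under these conditions: about 69,000 compounds, about 1,000 of them at 50% or above in at least one test.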

Each number is a percent effect as filed. How 0% and 100% were set is not recorded. Most values in the screen are low, and negative values occur. The compounds are a random part of those screened. Two or more numbers in one place are separate tests of the same structure; such repeats can differ widely. A dash means the value is not listed here; it may have been measured.

| compound | T. brucei | Toxoplasma | Leishmania in macrophages |
|---|---|---|---|
| `Cc1cnn(CCCNCc2csc(COc3ccccc3)n2)c1` | 10.81 | 23.03 | 33.69 |
| `Cc1nc(CN2CCCC(CCc3ccc(F)c(F)c3)C2)c[nH]1` (stereo not drawn) | 50.38 | -4.723 | 65.39 |
| `Cc1cc(N2CCOCC2)nc(N(C)CCO)c1C#N` | 3.145 | -8.826 | -11.01 |
| `COc1c(C(=O)NCc2cccnc2)nnn1Cc1ccc(C)cc1` | 5.275 | 3.825 | -5.646 |
| `O=C(N[C@@H]1CNCCC[C@H]1O)c1ccc(OCCN2CCCC2)cc1` | -14.62 | -4.968 | -4.542 |
| `O=C(O)C(F)(F)F.O=C(O)C(F)(F)F.[H][C@@]12CN(CCOC)CC[C@]1([H])CN(Cc1nccn1C)C2` | 27.97 | -0.4118 | 12.94 |
| `CCC(=O)N1CCC(Cc2ccccc2-c2ccccc2F)(C(N)=O)C1` (stereo not drawn) | 16.24 | 9.393 | 3.476 |
| `Cc1nc(-c2c(-c3ccccc3)ncn2CCCN2CCOCC2)c[nH]1` | -1.337 | -7.835 | 23.07 |
| `CN1CCCN(C(=O)c2cc(CN(C)CCc3ccccc3)on2)CC1` | -51.36 | -1.748 | 13.17 |
| `O=C(c1ccn(-c2ccccc2Cl)n1)N1CCSCC1` | -20.1 | -0.2658 | 5.728 |
| `O=C(c1ccccn1)N1CCC2(CC1)CN(c1cncnc1)C(=O)CO2` | -108.1 | -18.2 | 30.19 |
| `CC(C)CN1CCNC(=O)C12CCN(S(=O)(=O)c1ccc(F)cc1)CC2` | -13.57 | 6.623 | 3.498 |
| `CCC1CNCc2cc3c(C)ccc(C)c3nc2O1` (stereo not drawn) | 58.28 | -3.679 | -37.1 |
| `CCOC(=O)c1ccc(CNC(=O)c2ccncc2Cl)o1` | 8.376 | 0.2674 | 6.229 |
| `COc1ccc(CN(C)CC2CCCN2c2cccnn2)cc1F` (stereo not drawn) | -108.8 | 1.24 | 18.45 |
| `CC(C#N)CN(C)Cc1cc(Cl)cc2cccnc12` (stereo not drawn) | 15.48 | 13.17 | 15.75 |
| `CCCc1nnc(N2CCN(c3cccc(C)c3C)CC2)o1` | -49.91 | -3.448 | -18.15 |
| `Cn1cc(C2CCCN2C(=O)COCCc2ccccc2)cn1` (stereo not drawn) | -15.64 | 3.542 | 9.561 |
| `CN(C)c1cc(CNC(=O)c2ccc(F)cc2F)ccn1` | 37.64 | 5.082 | 42.64 |
| `Cc1cnc(C2(C)CCN(Cc3csc(C)n3)CC2)s1` | -9.262 | 2.521 | 13.69 |
| `[H][C@@]12COC[C@]1([H])[C@@H](OC)CN2C(=O)c1ccc[nH]1` | -30.9 | 28.22 | 4.099 |
| `N#Cc1cccc(N2CCC3(CCC(=O)N(CCCO)C3)CC2)n1` | -7.095 | 11.38 | -21.96 |
| `Cc1cc(C)n(CC(C)Nc2ncnc3c2CCNC3)n1` (stereo not drawn) | -30.59 | 6.955 | -4.806 |
| `O=C(c1cccc(S(=O)(=O)NC[C@@H]2C[C@H](F)CN2)c1)N1CCCCC1` | -5.735 | -10.14 | 3.464 |
| `CC(C)N(Cc1ccc(Cl)c(Cl)c1)C(=O)CCn1cncn1` | 4.484 | 14.26 | 25.19 |
| `CC1CCN(C(=O)C2CCCN(C(=O)Nc3ccccn3)C2)CC1` (stereo not drawn) | -15.37 | 3.846 | -10.88 |
| `CCc1nc(C)c(C(C)N(C)CCc2ccccn2)s1` (stereo not drawn) | -25.82 | 3.544 | -2.545 |
| `CCC(Nc1cccc(OC)c1)C(=O)N(CCOC)Cc1cnn(C)c1` (stereo not drawn) | 5.306 | -10.89 | 17.91 |
| `O=C(Nc1cnn(CC(=O)N2CCCO2)c1)c1ccccc1` | -24.18 | 12.19 | -14.42 |
| `OCC(CO)Nc1nc(C(F)F)nc2ccccc12` | -15.82 | 2.386 | 8.529 |
| `CCCC1COCCN1Cc1ccc(NC(C)=O)cc1` (stereo not drawn) | 7.12 | -20.06 | 24.15 |
| `COC(=O)c1ccc(C(=O)N2CCC(c3nnc(C)s3)CC2)cc1` | -21.36 | -0.4112 | 6.214 |
| `COc1ccc(OC)c(CN2CCC(c3cc(O)nc(C)n3)C2)c1` (stereo not drawn) | -0.76 | 0.4884 | 16.98 and -8.01 |
| `Cc1cc2c(=O)n3c(nc2s1)CCN(C(=O)c1scnc1C)CC3` | 15.91 | 1.217 | 24.65 |
| `CN(C(=O)c1cccc(NCc2cccs2)c1)C(C1CC1)C1CC1` | 20.22 | 0.1604 | 39.17 |
| `Fc1ccccc1-c1noc2c1CN(CCN1CCOCC1)CC2` | -2.316 | -21.89 | 24.82 |
| `COc1ccc(C2CCCN2c2nnc(C)s2)c(OC)c1` (stereo not drawn) | -35.13 | 0.194 | 1.461 |
| `Cc1noc(C)c1CC(=O)N1CCCC(Cn2ccnc2C)C1` (stereo not drawn) | -37.37 | -11.87 | 14.7 |
| `CC(C)c1nccn1CCn1cnc2ccsc2c1=O` | 3.873 | 1.23 | 11.02 |
| `CN(C)C(=O)Cc1nc(CN2CCOC(Cn3cccn3)C2)cs1` (stereo not drawn) | -16.93 | 0.4525 | -4.597 |
| `O=C(O)C(F)(F)F.[H][C@@]12CCN(Cc3ccc(C)o3)[C@@]1([H])CCN2C(=O)Cc1cccs1` | -9.677 | -7.632 | 31.33 |
| `O=C1CCCc2[nH]c(=O)c(C(=O)N(CC3CCCCC3)C3CC3)cc21` | -3.681 | -0.05294 | 9.748 |
| `CCn1nc(C)c2nn(CC(=O)NC3CCSCC3)cc21` | - | -25.8 | -33.83 |
| `Cc1nccn1-c1ccccc1CNC(=O)c1cn(CCN)nn1` | -4.769 | 30.2 | 23.26 |
| `[H][C@@]12CN(C(=O)N(C)C)C[C@]1([H])C(=O)N(C)C21CCN(C(C)=O)CC1` | -23.95 | 14.09 | -3.577 |
| `[H][C@@]12CCCO[C@]1([H])[C@H](N(C)C(C)C)CN(C(=O)c1cc(C)[nH]c1C)C2` | -21.79 | 11.29 | -0.7956 and 16.68 |
| `CNC(=O)c1ccc(NC(=O)NC(C)CCc2cccn2C)c(C)c1` (stereo not drawn) | -25.58 | 13.61 | 23.55 |
| `CCC(CO)Nc1nc(C(F)F)nc2ccccc12` (stereo not drawn) | 0.1448 | -4.904 | 26.64 |
| `COCCN1CCC2(COCCN(C(=O)Cc3cccs3)C2)C1.O=C(O)C(F)(F)F` (stereo not drawn) | -24.64 | 9.922 | 3.703 |
| `CN(C)CC1CN(Cc2coc(-c3ccccc3Cl)n2)CCO1` (stereo not drawn) | -2.77 | -3.291 | -11.72 |
| `C[C@@H]1CN(C(=O)c2ccc(C#N)nc2)C[C@@]1(O)C1CC1` | -0.8687 | -1.154 | 14.37 |
| `[H][C@@]12CCC(=O)N(CCc3c[nH]cn3)[C@]1([H])CCN(Cc1ccc(Cl)s1)C2` | 40.16 | -8.792 | 48.16 |
| `c1cc2c(cc1-n1nc(C3CC3)nc1-c1csnn1)OCCO2` | -32.49 | -10.1 | -0.4467 |
| `Cn1ncc(C(=O)N2CCN(S(C)(=O)=O)CC2)c1Cl` | -23.55 | 77.51 | -5.37 |
| `Cc1ccc(F)cc1-n1c(CCCN2CCOCC2)n[nH]c1=O` | -19.15 | -9.679 | 0.3098 |
| `CC(C)(C#N)c1ccc(NS(=O)(=O)CC2CCCCO2)cc1` (stereo not drawn) | -30.29 | -14.79 | 21.23 |
| `Cc1noc(C)c1-c1cncc(C2CCCN2Cc2ncc[nH]2)n1` (stereo not drawn) | -11.76 | -9.893 | 2.749 |
| `Cc1oc(C(C)C)cc1C(=O)N1CCN(c2cnn(C)c(=O)c2)CC1` | -92.87 | 15.5 | 25.1 |
| `[H][C@@]12CCN(S(=O)(=O)c3cccc(C)c3)C[C@]1(C(=O)NC)CCO2` | - | 0.1614 | -0.8215 |

For reference, 4 entries once more:

Result for Cn1cc(C2CCCN2C(=O)COCCc2ccccc2)cn1 (stereo not drawn) was T. brucei: -15.64%; Toxoplasma: 3.542%; Leishmania in macrophages: 9.561%.
Result for CCn1nc(C)c2nn(CC(=O)NC3CCSCC3)cc21 was Toxoplasma: -25.8%; Leishmania in macrophages: -33.83%.
Result for CCC(CO)Nc1nc(C(F)F)nc2ccccc12 (stereo not drawn) was T. brucei: 0.1448%; Toxoplasma: -4.904%; Leishmania in macrophages: 26.64%.
Result for O=C(c1cccc(S(=O)(=O)NC[C@@H]2C[C@H](F)CN2)c1)N1CCCCC1 was T. brucei: -5.735%; Toxoplasma: -10.14%; Leishmania in macrophages: 3.464%.